# Measurements reported in publication PMC7819943, “Rice protein-binding microarrays: a tool to detect cis-acting elements near promoter regions in rice”.
# By UniProt entry, the sequences of proteins in these tests, tags left out.
# UniProt Q0JBA9, entry or part of it: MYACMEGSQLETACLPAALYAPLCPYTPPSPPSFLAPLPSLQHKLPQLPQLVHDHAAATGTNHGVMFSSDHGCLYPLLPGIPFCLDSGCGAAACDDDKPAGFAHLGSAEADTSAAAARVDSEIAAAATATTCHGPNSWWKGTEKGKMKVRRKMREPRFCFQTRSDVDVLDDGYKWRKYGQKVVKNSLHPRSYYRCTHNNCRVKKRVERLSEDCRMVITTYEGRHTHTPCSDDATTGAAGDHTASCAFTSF
# Some of the results follow.
# Target: OsWRKY34 (Oryza sativa, UniProt Q0JBA9 1-250)
# Test: protein-binding microarray (RPBM); PBS, 2% BSA, 51.3 ng/ul salmon testes DNA, 50 uM zinc acetate, 200 nM TF, 25 C, 1 h; high values mean tight binding
# Settings: protein: recombinant; tags: N-terminal polyhistidine and DsRed monomer fusion (pET32a); label: CyDye5-dUTP incorporated in the synthesized complementary strand; 3' TTTTT single-stranded linker to array surface; dsDNA, one strand shown
# Outline: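 The binding signal for each feature is its fluorescence intensity in arbitrary units. An Axon 4000B scanner was used to read a custom Agilent array that had been made double-stranded with Cy5-dUTP primer extension, blocked with 2% BSA, incubated at 25 °C for 1 h with 200 nM protein in PBS, 2% BSA, salmon testes DNA and 50 µM zinc acetate, and washed. The protein was an N-terminal polyhistidine–DsRed transcription factor fusion from E. coli BL21-CodonPlus, purified on Ni–NTA.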
row,Sequence,binding signal
1,AGTGACGCATTTTTTTACATTGACTTTGTGCACTTTGTTACGGAGTCACCTAGTGCAG,9290 fluorescence intensity (a.u.)
2,GTTCGGGGCGTGTGCTCTAGTTCATATTCTTTCTCGACAGCGGAGTCACCTAGTGCAG,10400 fluorescence intensity (a.u.)
3,TCATTGGCATGTTTTTTCTCCAGCTGAAGTTGTTTGCCATCGGAGTCACCTAGTGCAG,9860 fluorescence intensity (a.u.)
4,ATGGGTTCCAACCCACCCCTCGTTTTCCATGTGCACGTTTCGGAGTCACCTAGTGCAG,8140 fluorescence intensity (a.u.)
5,CGCCTCCGAACATCTCTCTACGCGCGACGCCCACCAGTACCGGAGTCACCTAGTGCAG,8680 fluorescence intensity (a.u.)
6,ACCATGCTTTCTTCGTCGTCTACCTCGCCGGCGTCCGCTTCGGAGTCACCTAGTGCAG,8710 fluorescence intensity (a.u.)
7,TCACCCATTTTTAGCTTGGTCATCATCAAAAGTAGGATCACGGAGTCACCTAGTGCAG,8100 fluorescence intensity (a.u.)
8,GATACGTTCATCCGTTTTCATGGCCGGCCGGCTACCACCGCGGAGTCACCTAGTGCAG,8910 fluorescence intensity (a.u.)
9,TCTCGCCTCGCCGCGCACATGACATTGATAATAACACCGTCGGAGTCACCTAGTGCAG,8770 fluorescence intensity (a.u.)
10,AGTTCAGTTCAGTTCAGTTTTTGTTACGTCGTCGTTCGAGCGGAGTCACCTAGTGCAG,8850 fluorescence intensity (a.u.)
11,ACGCCACGATGGCCTCCTCGCCCGCCCCACCAGGACACCACGGAGTCACCTAGTGCAG,8960 fluorescence intensity (a.u.)
12,TGGATCCTCTGCATATTGTTCAGTCTTGTCCTTTTGCTTTCGGAGTCACCTAGTGCAG,9080 fluorescence intensity (a.u.)
13,CTCCGCGGGACGCGTGTCTCCGCTCCCACGCCGCTGTCTACGGAGTCACCTAGTGCAG,8040 fluorescence intensity (a.u.)
14,CACTGGTTTTGATAGTTGAGGGACTCTTGTGTCTGGTTTTCGGAGTCACCTAGTGCAG,8510 fluorescence intensity (a.u.)
15,TCTATGTCTATCTCTCATCCGATTCCTACATTTTTCCTGCCGGAGTCACCTAGTGCAG,11300 fluorescence intensity (a.u.)
16,TAGCCCCAACTTCTTTTAGATTTTCTTTTTCGAAAAGAGACGGAGTCACCTAGTGCAG,9040 fluorescence intensity (a.u.)
17,TCACATATGTGTGCTATGATTTGTTTTCTTCCTCACCAAACGGAGTCACCTAGTGCAG,8190 fluorescence intensity (a.u.)
18,AGATTTTTTCCATTTCCATGTGTGTGCTATGAACACCGTGCGGAGTCACCTAGTGCAG,8050 fluorescence intensity (a.u.)
19,CTAGTCACATTCTGAATCTCTTTTCCTTTTTCCAGTGTCTCGGAGTCACCTAGTGCAG,8100 fluorescence intensity (a.u.)
20,TCTTCTTCTTCTTCCACCCGTTGCTGATTCCCTCACTGCTCGGAGTCACCTAGTGCAG,8180 fluorescence intensity (a.u.)
21,TTTTGTAAGTTGAGGGATGTGATATATCTGGTTTTGCGGTCGGAGTCACCTAGTGCAG,10600 fluorescence intensity (a.u.)

# Part of the list above, tab-delimited:
row	Sequence	binding signal
1	AGTGACGCATTTTTTTACATTGACTTTGTGCACTTTGTTACGGAGTCACCTAGTGCAG	9290 fluorescence intensity (a.u.)
3	TCATTGGCATGTTTTTTCTCCAGCTGAAGTTGTTTGCCATCGGAGTCACCTAGTGCAG	9860 fluorescence intensity (a.u.)
4	ATGGGTTCCAACCCACCCCTCGTTTTCCATGTGCACGTTTCGGAGTCACCTAGTGCAG	8140 fluorescence intensity (a.u.)
5	CGCCTCCGAACATCTCTCTACGCGCGACGCCCACCAGTACCGGAGTCACCTAGTGCAG	8680 fluorescence intensity (a.u.)
6	ACCATGCTTTCTTCGTCGTCTACCTCGCCGGCGTCCGCTTCGGAGTCACCTAGTGCAG	8710 fluorescence intensity (a.u.)
8	GATACGTTCATCCGTTTTCATGGCCGGCCGGCTACCACCGCGGAGTCACCTAGTGCAG	8910 fluorescence intensity (a.u.)
13	CTCCGCGGGACGCGTGTCTCCGCTCCCACGCCGCTGTCTACGGAGTCACCTAGTGCAG	8040 fluorescence intensity (a.u.)
18	AGATTTTTTCCATTTCCATGTGTGTGCTATGAACACCGTGCGGAGTCACCTAGTGCAG	8050 fluorescence intensity (a.u.)
21	TTTTGTAAGTTGAGGGATGTGATATATCTGGTTTTGCGGTCGGAGTCACCTAGTGCAG	10600 fluorescence intensity (a.u.)

# The list goes on.

row,Sequence,binding signal
1,TCCATCTGGCGAGCAGGGTAGGGGAGGGGAAGGGATCCTGCGGAGTCACCTAGTGCAG,15100 fluorescence intensity (a.u.)
2,CGCTGCTTCTGATCATCTCCCGTTCTTGCATTCTTCTTCTCGGAGTCACCTAGTGCAG,19400 fluorescence intensity (a.u.)
3,CCCTCTTGCAGTGTGTTCTCTCGTATCCACACGCGCAAGCCGGAGTCACCTAGTGCAG,8550 fluorescence intensity (a.u.)
4,TAGGATCGGGTTCTCGTCGCCGCTTGCTGATGATCTGTTCCGGAGTCACCTAGTGCAG,9220 fluorescence intensity (a.u.)
5,ACATGCTAACTTCAAATTAAATACGGTCTCCTAATTGCAGCGGAGTCACCTAGTGCAG,8100 fluorescence intensity (a.u.)
6,GAGATTTTGACTATTAATTTTCATCGTCTTTGGTTTTAAGCGGAGTCACCTAGTGCAG,8300 fluorescence intensity (a.u.)
7,CATGACCTCCTCTACTCACAGTATTTTTGCCCAAAATTTCCGGAGTCACCTAGTGCAG,8800 fluorescence intensity (a.u.)
8,GCGTCTGCGGGATTTGGGGAGGGGAGCGGCGGCGGAGATGCGGAGTCACCTAGTGCAG,9820 fluorescence intensity (a.u.)
9,GGCGCCTCGACCAACCAACCTGTCTATCTGCTTCCTCGACCGGAGTCACCTAGTGCAG,11700 fluorescence intensity (a.u.)
10,GTGGTAGATACTTACTTACTCCTAAGTCACGAAATAGTTTCGGAGTCACCTAGTGCAG,8610 fluorescence intensity (a.u.)
11,GGGTGAGTAATATCTGGTTTTTGGGTTTAGGGCGGTAATTCGGAGTCACCTAGTGCAG,17700 fluorescence intensity (a.u.)
12,GGTATCTCTTTGTTCAGCTCTCTATTCACAACTTGAGGGGCGGAGTCACCTAGTGCAG,11300 fluorescence intensity (a.u.)
13,TGCTAGAGAAAGTCTCTTATTTTTCATACACACGTTTTCCCGGAGTCACCTAGTGCAG,10100 fluorescence intensity (a.u.)
14,GTCCCCGCGGCTCATCTCCCTCCTCAGGCAAAGCGCAGCACGGAGTCACCTAGTGCAG,8080 fluorescence intensity (a.u.)
15,CTCTCTCATCTCGCTGTAGTCCACACGCGGACATGCCGCCCGGAGTCACCTAGTGCAG,8470 fluorescence intensity (a.u.)
16,TAAAAATCAGCTAGTGTGGGATGGGATCTCGAATTTTCTGCGGAGTCACCTAGTGCAG,8760 fluorescence intensity (a.u.)
17,TTTGCATTTATTTTTCATTGTTTCCGTCACTTTAGAAATTCGGAGTCACCTAGTGCAG,8260 fluorescence intensity (a.u.)
18,TTTCCTGTTGTCATACTTAGTACTGCCCTTTATAAGTTGACGGAGTCACCTAGTGCAG,8680 fluorescence intensity (a.u.)
19,TATCCTCTTTGCTGCTAATGGTGTCATTATCCCGTGTGTACGGAGTCACCTAGTGCAG,10100 fluorescence intensity (a.u.)
20,GAACCATTTACAGTTATATACCGTATCGTTTACTATTTGTCGGAGTCACCTAGTGCAG,8140 fluorescence intensity (a.u.)
21,ATCTTCGCTCTAGTCTCAGCTCAAAAGCTTTTGACCATTCCGGAGTCACCTAGTGCAG,10900 fluorescence intensity (a.u.)
